# In PubChem BioAssay AID248 (DTP/NCI, 2004):
# The list shows only some results of the screen, not a fair sample: it is rich in T/C values a quarter to a half above the control, in often repeated tests (any T/C) and in doses without a T/C. Further doses and runs are listed elsewhere. T/C is the treated group as % of the vehicle group. Some entries give survivors of the animals treated and no T/C: the source holds a T/C of zero for them, seemingly a mark for toxic or unscored doses. Some survivor counts are full or nearly so, which does not show that the dose was tolerated: the source hardly ever lists a survival T/C far under the control, and the zero likely stands for such cases as well. Survivors were counted at the toxicity check, usually on the fifth day, unless a day is given; later deaths do not show. Schedule codes are those of the source, taken here to give the interval after Q, in days (D) or hours (H), and the number of doses after X. Some doses were run more than once; their values stand side by side, smallest first. Some schedule codes hold Z or #, which are not explained here. Where survival is the endpoint, the PubChem record calls one and a half times the control and up active, and a quarter to a half above the control has no call in these data; cut-offs in other NCI protocols can differ. Some T/C values are followed by the survivors on the day toxicity was checked, most often the fifth; where none is given, no animal had died by that day.
# Tested on: L1210 leukemia ip in BDF1 mice, survival T/C
# Assay: NCI In Vivo Anticancer Drug Screen. Data for tumor model L1210 Leukemia (intraperitoneal) in B6D2F1 (BDF1) mice
# Settings: higher T/C = longer survival
# [1] = T/C endpoint: mean survival time, dose: 500.0 mg/kg/injection, schedule: Q01DX001 (ip), vehicle: saline
smiles,measurement,setting,value
O=P1(N(CCCl)CCCl)NCCCO1 (centres undefined),T/C,"T/C endpoint: mean survival time, dose: 400.0 mg/kg/injection, schedule: Q01DX001 (ip), vehicle: saline, evaluated on day 63",357 % of control
same,T/C,"T/C endpoint: mean survival time, dose: 400.0 mg/kg/injection, schedule: Q01DX001 (ip), vehicle: saline, evaluated on day 64",108 % of control [6 of 8 alive]
same,survivor count,"T/C endpoint: mean survival time, dose: 400.0 mg/kg/injection, schedule: Q01DX001 (ip), vehicle: saline",6 of 10 and 8 of 8
same,survivor count,"T/C endpoint: mean survival time, dose: 400.0 mg/kg/injection, schedule: Q01DX006 (iv), vehicle: saline",5 of 6
same,survivor count,"T/C endpoint: mean survival time, dose: 400.0 mg/kg/injection, schedule: Q01DX Z (im), vehicle: saline",3 of 6
same,survivor count,"T/C endpoint: mean survival time, dose: 400.0 mg/kg/injection, schedule: Q01DX Z (ip), vehicle: saline",0 of 6
same,survivor count,"T/C endpoint: mean survival time, dose: 400.0 mg/kg/injection, schedule: Q01DX Z (oral), vehicle: saline",4 of 6
same,survivor count,"T/C endpoint: mean survival time, dose: 400.0 mg/kg/injection, schedule: Q01DX Z (sc), vehicle: saline",1 of 6
same,T/C,[1],138 and 193 % of control [4 of 6 alive]
same,survivor count,[1],2 of 6 and 5 of 6
same,survivor count,"T/C endpoint: mean survival time, dose: 500.0 mg/kg/injection, schedule: Q01DX001 (ip), vehicle: water",1 of 3
same,survivor count,"T/C endpoint: mean survival time, dose: 500.0 mg/kg/injection, schedule: Q01DX001 (sc), vehicle: saline",5 of 8
same,survivor count,"T/C endpoint: mean survival time, dose: 500.0 mg/kg/injection, schedule: Q## X Z (sc), vehicle: saline",1 of 8
same,survivor count,"T/C endpoint: mean survival time, dose: 563.0 mg/kg/injection, schedule: Q07DX002 (ip), vehicle: saline",0 of 10
same,survivor count,"T/C endpoint: mean survival time, dose: 600.0 mg/kg/injection, schedule: Q01DX006 (iv), vehicle: saline",1 of 6
same,survivor count,"T/C endpoint: mean survival time, dose: 600.0 mg/kg/injection, schedule: Q01DX Z (im), vehicle: saline",0 of 6
same,survivor count,"T/C endpoint: mean survival time, dose: 600.0 mg/kg/injection, schedule: Q01DX Z (ip), vehicle: saline",0 of 6
same,survivor count,"T/C endpoint: mean survival time, dose: 600.0 mg/kg/injection, schedule: Q01DX Z (sc), vehicle: saline",0 of 6
same,survivor count,"T/C endpoint: mean survival time, dose: 600.0 mg/kg/injection, schedule: Q03DX Z (ip), vehicle: saline",4 of 6
same,survivor count,"T/C endpoint: mean survival time, dose: 800.0 mg/kg/injection, schedule: Q01DX001 (ip), vehicle: saline","0 of 6, 1 of 6, 2 of 6"
same,survivor count,"T/C endpoint: mean survival time, dose: 800.0 mg/kg/injection, schedule: Q01DX Z (ip), vehicle: saline",0 of 6
same,survivor count,"T/C endpoint: mean survival time, dose: 850.0 mg/kg/injection, schedule: Q07DX Z (ip), vehicle: saline",0 of 6
same,survivor count,"T/C endpoint: mean survival time, dose: 900.0 mg/kg/injection, schedule: Q01DX001 (ip), vehicle: saline",0 of 6
same,survivor count,"T/C endpoint: mean survival time, dose: 1000.0 mg/kg/injection, schedule: Q01DX001 (ip), vehicle: saline",2 of 6
same,survivor count,"T/C endpoint: mean survival time, dose: 1000.0 mg/kg/injection, schedule: Q07DX Z (ip), vehicle: saline",0 of 6
same,T/C,"T/C endpoint: median survival time, dose: 20.0 mg/kg/injection, schedule: Q01DX009 (ip), vehicle: saline, evaluated on day 25",130 % of control
same,T/C,"T/C endpoint: median survival time, dose: 20.0 mg/kg/injection, schedule: Q01DX009 (ip), vehicle: saline, evaluated on day 30",137 % of control
same,T/C,"T/C endpoint: median survival time, dose: 22.5 mg/kg/injection, schedule: Q01DX009 (ip), vehicle: saline",133 % of control [5 of 6 alive]
same,T/C,"T/C endpoint: median survival time, dose: 37.5 mg/kg/injection, schedule: Q07DX003 (ip), vehicle: saline, evaluated on day 7",137 % of control
same,T/C,"T/C endpoint: median survival time, dose: 37.5 mg/kg/injection, schedule: Q07DX003 (ip), vehicle: saline, evaluated on day 63",135 % of control
same,T/C,"T/C endpoint: median survival time, dose: 40.0 mg/kg/injection, schedule: Q01DX005 (ip), vehicle: saline",149 % of control
same,T/C,"T/C endpoint: median survival time, dose: 40.0 mg/kg/injection, schedule: Q01DX009 (ip), vehicle: saline, evaluated on day 25",150 % of control
same,T/C,"T/C endpoint: median survival time, dose: 40.0 mg/kg/injection, schedule: Q01DX009 (ip), vehicle: saline, evaluated on day 30","139, 149, 178 % of control"
same,T/C,"T/C endpoint: median survival time, dose: 50.0 mg/kg/injection, schedule: Q01DX001 (ip), vehicle: saline, evaluated on day 7","115, 116, 117, 119, 127, 146 % of control"
same,T/C,"T/C endpoint: median survival time, dose: 50.0 mg/kg/injection, schedule: Q01DX001 (ip), vehicle: saline, evaluated on day 26",115 % of control
same,T/C,"T/C endpoint: median survival time, dose: 50.0 mg/kg/injection, schedule: Q01DX001 (ip), vehicle: saline, evaluated on day 30",127 % of control
same,T/C,"T/C endpoint: median survival time, dose: 50.0 mg/kg/injection, schedule: Q01DX001 (ip), vehicle: saline, evaluated on day 35",119 % of control
same,T/C,"T/C endpoint: median survival time, dose: 50.0 mg/kg/injection, schedule: Q01DX001 (ip), vehicle: saline, evaluated on day 62",146 % of control
same,T/C,"T/C endpoint: median survival time, dose: 50.0 mg/kg/injection, schedule: Q01DX001 (ip), vehicle: saline, evaluated on day 63",116 [7 of 8 alive] and 117 % of control
same,T/C,"T/C endpoint: median survival time, dose: 50.0 mg/kg/injection, schedule: Q01DX001 (ip), vehicle: saline, evaluated on day 64",122 % of control
same,T/C,"T/C endpoint: median survival time, dose: 65.0 mg/kg/injection, schedule: Q01DX001 (ip), vehicle: saline, evaluated on day 7","124, 137, 138 % of control"
same,T/C,"T/C endpoint: median survival time, dose: 65.0 mg/kg/injection, schedule: Q01DX001 (ip), vehicle: saline, evaluated on day 46",136 % of control
same,T/C,"T/C endpoint: median survival time, dose: 65.0 mg/kg/injection, schedule: Q01DX001 (ip), vehicle: saline, evaluated on day 69",144 % of control
same,T/C,"T/C endpoint: median survival time, dose: 65.0 mg/kg/injection, schedule: Q07DX003 (ip), vehicle: saline, evaluated on day 7","130, 133, 134 % of control"
